From article PMC6660601
These are yes or no findings as the source states them, for the method shown. Binding seen in cells or lysates may run through a third protein. Some results given as binding are weak or reduced against the parent protein; the word gives no strength.

The chains behind the UniProt entries cited, without tags or fusion partners.
UniProt O08586: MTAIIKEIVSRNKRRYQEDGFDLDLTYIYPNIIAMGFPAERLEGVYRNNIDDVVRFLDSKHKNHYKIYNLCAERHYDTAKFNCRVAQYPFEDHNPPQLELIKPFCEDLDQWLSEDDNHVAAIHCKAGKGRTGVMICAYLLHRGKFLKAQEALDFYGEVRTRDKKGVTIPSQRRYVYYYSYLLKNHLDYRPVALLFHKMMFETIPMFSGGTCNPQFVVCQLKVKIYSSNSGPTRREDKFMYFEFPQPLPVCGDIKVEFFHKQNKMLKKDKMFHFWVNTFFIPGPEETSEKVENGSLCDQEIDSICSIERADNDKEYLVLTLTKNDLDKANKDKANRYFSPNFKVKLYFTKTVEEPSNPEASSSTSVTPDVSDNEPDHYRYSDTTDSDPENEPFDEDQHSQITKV

Experiments:
[1] = molecular target: T1, Overexpressed MYO1B (rAd/CMV-MYO1B) (UniProt P46735); test: co-IP; immunoprecipitation with anti-MYO1B antibody from whole-cell lysates of immortalized MEFs transduced with rAd/CMV-LacZ or rAd/CMV-MYO1B, 16 h serum starvation; blot for PTEN; normal IgG as negative control
T1 sequence: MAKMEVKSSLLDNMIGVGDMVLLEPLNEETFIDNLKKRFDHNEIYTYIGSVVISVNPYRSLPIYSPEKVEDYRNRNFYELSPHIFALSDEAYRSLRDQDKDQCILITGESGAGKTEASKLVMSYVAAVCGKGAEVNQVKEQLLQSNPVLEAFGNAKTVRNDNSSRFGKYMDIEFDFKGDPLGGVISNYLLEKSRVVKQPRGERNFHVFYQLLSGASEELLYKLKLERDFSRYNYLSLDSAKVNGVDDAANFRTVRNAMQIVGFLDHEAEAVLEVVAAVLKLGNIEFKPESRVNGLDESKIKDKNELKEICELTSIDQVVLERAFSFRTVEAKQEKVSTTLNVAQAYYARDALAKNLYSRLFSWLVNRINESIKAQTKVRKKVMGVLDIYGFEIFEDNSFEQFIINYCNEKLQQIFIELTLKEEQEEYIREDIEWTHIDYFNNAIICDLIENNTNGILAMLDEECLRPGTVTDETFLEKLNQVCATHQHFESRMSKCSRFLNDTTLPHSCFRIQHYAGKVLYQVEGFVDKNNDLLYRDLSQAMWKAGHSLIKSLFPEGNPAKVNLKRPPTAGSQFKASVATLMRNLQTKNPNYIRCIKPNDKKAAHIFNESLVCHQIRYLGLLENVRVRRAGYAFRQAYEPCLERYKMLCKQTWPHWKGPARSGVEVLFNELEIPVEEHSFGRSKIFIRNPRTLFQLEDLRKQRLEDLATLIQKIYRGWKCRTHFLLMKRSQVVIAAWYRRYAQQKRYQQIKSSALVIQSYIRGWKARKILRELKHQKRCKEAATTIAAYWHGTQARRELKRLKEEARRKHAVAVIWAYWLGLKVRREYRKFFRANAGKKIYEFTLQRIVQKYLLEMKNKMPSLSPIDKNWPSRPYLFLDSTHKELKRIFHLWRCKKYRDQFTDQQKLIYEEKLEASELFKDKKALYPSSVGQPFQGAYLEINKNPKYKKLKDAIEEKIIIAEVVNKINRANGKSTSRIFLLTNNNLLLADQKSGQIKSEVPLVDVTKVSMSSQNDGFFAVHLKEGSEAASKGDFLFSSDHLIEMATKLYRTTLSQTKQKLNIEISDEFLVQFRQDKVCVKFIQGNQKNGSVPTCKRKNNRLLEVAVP

[2] = molecular target: T2, Myosin 1b (MYO1B), endogenous in immortalized MEFs (mouse (endogenous in MEF)) (UniProt P46735); test: as above
T2 sequence: T1 sequence

With “Phosphatase and tensin homolog (PTEN), endogenous in immortalized MEFs (from UniProt O08586 1-403)” the binding [1] was “binds” and the binding [2] was “binds”.
